Results reported in the supplement of paper PMC4749390.
Structures can show the parent of a compound that is named as a salt. The list shows a part of the results. Repeats in this data set agree poorly, so a single value says little.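 JEG3 cells stably carry tetracycline-induced wild-type human LRH-1, a heavily sumoylated nuclear receptor. APOC3 and MUC1 are SUMO-sensitive transcripts, raised by SUMO-less LRH-1 or UBC9 knockdown, measured by RT-qPCR against TBP and DMSO controls. A robust Z-score above +2 or below -2 marked a primary hit before toxicity and TBP filtering.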

test system: JEG3 expressing hLRH-1; assay: MUC1 transcript change (ddCt vs TBP and DMSO), Z-score over library; higher = higher MUC1 expression; settings: 10 µM; time (hr): 24

| SMILES | MUC1 transcript change (Z-score) |
| --- | --- |
| CO/C(O)=C1\C(C)=NC(C)=C(C(=O)OCCN(C)Cc2ccccc2)C1c1cccc([N+](=O)[O-])c1 (configuration not stated) [Nicardipine hydrochloride] | 0.398 |
| C[C@H](N[C@@H](CCc1ccccc1)C(=O)O)C(=O)N1CCC[C@H]1C(=O)O [enalaprilat] | 0.64 |
| COC1=C(OC)C(=O)C(CCCCCCCCCCO)=C(C)C1=O [idebenone] | -0.601 |
| N[C@@H]1[C@@H](O)[C@H](O)[C@@H](CO)O[C@H]1O [glucosamine hydrochloride] | 0.149 |
| CN1CCN(CCCN2c3ccccc3Sc3ccc(C(F)(F)F)cc32)CC1 [Trifluoperazine dihydrochloride] | 0.372 |
| C[C@@H]1C[C@H]2[C@@H]3CCC4=CC(=O)C=C[C@]4(C)[C@@]3(Cl)[C@@H](O)C[C@]2(C)[C@@]1(OC(=O)c1ccco1)C(=O)CCl [mometasone furoate] | 0.0887 |
| C/C=C(/C)C(=O)O[C@@H]1[C@H](OC(C)=O)[C@@]2(CO)C(CC1(C)C)C1=CCC3[C@@]4(C)CC[C@H](O[C@@H]5O[C@H](C(=O)O)[C@@H](O[C@@H]6O[C@H](CO)[C@@H](O)[C@H](O)[C@H]6O)[C@H](O)[C@H]5O[C@@H]5O[C@H](CO)[C@@H](O)[C@H](O)[C@H]5O)[C@](C)(CO)C4CC[C@@]3(C)[C@]1(C)C[C@H]2O (stereo partly drawn) [beta-escin] | -0.815 |
| CCC(C)CCCCC(=O)NC(CCN)C(=O)NC(C(=O)NC(CCN)C(=O)NC1CCNC(=O)C(C(C)O)NC(=O)C(CCN)NC(=O)C(CCN)NC(=O)C(CC(C)C)NC(=O)C(Cc2ccccc2)NC(=O)C(CCN)NC1=O)C(C)O (configuration not stated) [polymyxin b sulfate] | 1.09 |
| CN(C)CCOc1ccc(/C(=C(/CCCl)c2ccccc2)c2ccccc2)cc1 [toremiphene citrate] | 0.666 |
| Oc1cccc(O)c1 [resorcinol] | 0.44 |
| CC[C@H]1OC(=O)[C@H](C)[C@@H](O[C@H]2C[C@@](C)(OC)[C@@H](O)[C@H](C)O2)[C@H](C)[C@@H](O[C@@H]2O[C@H](C)C[C@H](N(C)C)[C@H]2O)[C@](C)(O)C[C@@H](C)CN(C)[C@H](C)[C@@H](O)[C@]1(C)O [azithromycin] | 0.585 |
| Cc1cc(O)cc(C)c1Cl [chloroxylenol] | 0.122 |
| Cc1cccc(Nc2ccncc2S(=O)(=O)NC(=O)NC(C)C)c1 [torsemide] | 0.567 |
| O=C(NC(Cc1cc(O)nc2ccccc12)C(=O)O)c1ccc(Cl)cc1 (configuration not stated) [rebamipide] | -0.372 |
| CCOC(=O)CC(=O)N1CCSC1COc1ccccc1OC (configuration not stated) [moguisteine] | -1.51 |
| CC(N)CCCC(C)(C)O (configuration not stated) [heptaminol hydrochloride] | -0.0384 |
| CN(C)CCCN1c2ccccc2Sc2ccccc21 [promazine hydrochloride] | -0.765 |
| C1N2CN3CN1CN(C2)C3 [methenamine] | 1.14 |
| CC(=O)Oc1c(C)c(C)c2c(c1C)CCC(C)(CCCC(C)CCCC(C)CCCC(C)C)O2 (stereo not drawn) [alpha-tochopheryl acetate] | 0.302 |
| CC1(C)O[C@@H]2CC3C4C[C@H](F)C5=CC(=O)C=CC5(C)C4C(O)CC3(C)[C@]2(C(=O)CO)O1 (some centres not stated) [flunisolide] | -1.49 |
| CCOC(=S)SSC(=S)OCC [dixanthogen] | -0.0693 |
| Clc1ccc(C(Cn2ccnc2)OCc2ccsc2Cl)c(Cl)c1 (configuration not stated) [tioconazole] | 0.0237 |
| CC[C@]1(O)C[C@H]2CN(CCc3c([nH]c4ccccc34)[C@@](C(=O)OC)(c3cc4c(cc3OC)N(C)[C@H]3[C@@](O)(C(=O)OC)[C@H](OC(C)=O)[C@]5(CC)C=CCN6CC[C@]43[C@@H]65)C2)C1 [vinblastine sulfate] | 0.0864 |
| CC(C)(Oc1ccc(C2CC2(Cl)Cl)cc1)C(=O)O (configuration not stated) [ciprofibrate] | 0.604 |

| SMILES | MUC1 transcript change (Z-score) |
| --- | --- |
| Nc1ccc(S(=O)(=O)Nc2nccs2)cc1 [sulfathiazole] | 0.375 |
| NS(=O)(=O)c1cc2c(cc1Cl)NCNS2(=O)=O [Hydrochlorothiazide] | 0.78 |
| O=C1OC(c2ccc(O)cc2)(c2ccc(O)cc2)c2ccccc21 [phenolphthalein] | 0.183 |
| Cc1ccccc1C(OCCN(C)C)c1ccccc1 (configuration not stated) [orphenadrine citrate] | 0.39 |
| Cc1cc(C2CCCCC2)n(O)c(=O)c1 [ciclopirox olamine] | 7.13 |
| NC(=O)c1cnccn1 [pyrazinamide] | -1.26 |
| OCCOCCN1CCN(C(c2ccccc2)c2ccc(Cl)cc2)CC1 (configuration not stated) [hydroxyzine pamoate] | 0.00491 |
| O=C1c2cccc(O)c2C(=O)c2c(O)cccc21 [dantron] | 0.252 |
| Cc1cc2nc3c(=O)[nH]c(=O)nc-3n(C[C@@H](O)[C@@H](O)[C@@H](O)COP(=O)(O)O)c2cc1C [riboflavin 5-phosphate sodium] | 0.573 |
| CN1CCCC(n2nc(Cc3ccc(Cl)cc3)c3ccccc3c2=O)CC1 (configuration not stated) [azelastine hydrochloride] | -0.249 |
| Nc1ccc(S(N)(=O)=O)cc1 [sulfanilamide] | 0.205 |
| C[C@]12CCC(=O)C=C1[C@@H]1C[C@@H]1[C@H]1[C@@H]3[C@@H]4C[C@@H]4[C@@]4(CCC(=O)O4)[C@@]3(C)CC[C@@H]12 [drospirenone] | 0.431 |
| C[N+](C)(C)CC(O)CC(=O)O (configuration not stated) [carnitine hydrochloride] | 0.764 |
| CCCOc1ccc(C(=O)OCCN(CC)CC)cc1N [proparacaine hydrochloride] | -0.884 |
| O=C(CCCN1CC=C(n2c(O)nc3ccccc32)CC1)c1ccc(F)cc1 [droperidol] | 0.161 |
| Clc1ccc(CSC(Cn2ccnc2)c2ccc(Cl)cc2Cl)cc1 (configuration not stated) [sulconazole nitrate] | -0.0721 |
| CC(Oc1ccccc1)C(=O)N[C@@H]1C(=O)N2[C@@H]1SC(C)(C)[C@@H]2C(=O)O (some centres not stated) [phenethicillin potassium] | -0.269 |
| Cc1ccc(S(=O)(=O)NCl)cc1 [chloramine-t] | -0.318 |
| CC1(C)S[C@@H]2[C@H](NC(=O)[C@H](N)c3ccccc3)C(=O)N2[C@H]1C(=O)O [ampicillin sodium] | 1.2 |
| c1ccc(CC2=NCCN2)cc1 [tolazoline hydrochloride] | 0.491 |
| CC(=O)NCCCCCC(=O)O [acexamic acid] | -0.418 |
| COc1cc([C@@H]2c3cc4c(cc3C(O[C@@H]3O[C@@H]5CO[C@@H](c6cccs6)OC5[C@H](O)[C@H]3O)C3COC(=O)[C@@H]32)OCO4)cc(OC)c1O (some centres not stated) [teniposide] | 0.854 |
| O=C(O)c1cccnc1Nc1cccc(C(F)(F)F)c1 [niflumic acid] | 0.899 |
| CCNC(=O)/C=C/c1cccc(Br)c1 [cinromide] | 0.549 |

Structures from the list above that contain a CF3 group:

| SMILES | MUC1 transcript change (Z-score) |
| --- | --- |
| CN1CCN(CCCN2c3ccccc3Sc3ccc(C(F)(F)F)cc32)CC1 [Trifluoperazine dihydrochloride] | 0.372 |
| O=C(O)c1cccnc1Nc1cccc(C(F)(F)F)c1 [niflumic acid] | 0.899 |

Copied from the list.
Cc1cc(C2CCCCC2)n(O)c(=O)c1 [ciclopirox olamine] | MUC1 transcript change (Z-score): 7.13
Cc1ccc(S(=O)(=O)NCl)cc1 [chloramine-t] | MUC1 transcript change (Z-score): -0.318

Further records.

| SMILES | MUC1 transcript change (Z-score) |
| --- | --- |
| CC1CC(OC(=O)C(O)c2ccccc2)CC(C)(C)C1 (configuration not stated) [cyclandelate] | -0.7 |
| Nc1nc(O)c2nc(CNc3ccc(C(=O)N[C@@H](CCC(=O)O)C(=O)O)cc3)cnc2n1 [folic acid] | -0.162 |
| CCN(CC)CC(=O)Nc1c(C)cccc1C [Lidocaine hydrochloride] | -1.62 |
| CC(=O)OCC(=O)[C@@]12OC(C)(C)O[C@@H]1C[C@H]1[C@@H]3C[C@H](F)C4=CC(=O)C=C[C@]4(C)[C@@]3(F)[C@@H](O)C[C@@]12C [fluocinonide] | -0.183 |
| Clc1ccc2c(c1)C(N1CCNCC1)=Nc1ccccc1O2 [Amoxapine] | -1.01 |
| CC(C)NCC(O)c1ccc(NS(C)(=O)=O)cc1 (configuration not stated) [sotalol hydrochloride] | -0.12 |
| COc1ccc(-c2cc(C(F)F)nn2-c2ccc(S(N)(=O)=O)cc2)cc1F [deracoxib] | -1.46 |
| O=C1NS(=O)(=O)c2ccccc21 [saccharin] | 0.0744 |
| Nc1ccc(S(=O)(=O)c2ccc(N)cc2)cc1 [dapsone] | -0.464 |
| CN(C)CCC(c1ccc(Cl)cc1)c1ccccn1 (configuration not stated) [chlorpheniramine maleate] | -0.367 |
| CN1CCN(C(c2ccccc2)c2ccc(Cl)cc2)CC1 (configuration not stated) [chlorcyclizine hydrochloride] | -0.445 |
| O=S(=O)(OC[C@H]1O[C@@H](O[C@]2(COS(=O)(=O)[O][Al]([OH])[OH])O[C@H](OS(=O)(=O)[O][Al]([OH])[OH])[C@@H](OS(=O)(=O)[O][Al]([OH])[OH])[C@@H]2OS(=O)(=O)[O][Al]([OH])[OH])[C@H](OS(=O)(=O)[O][Al]([OH])[OH])[C@@H](OS(=O)(=O)[O][Al]([OH])[OH])[C@@H]1OS(=O)(=O)[O][Al]([OH])[OH])[O][Al]([OH])[OH] [sucralfate] | 1.12 |
| CN(C)CCN(Cc1cccs1)c1ccccn1 [methapyrilene hydrochloride] | 0.708 |
| CC(=O)NS(=O)(=O)c1ccc(N)cc1 [sulfacetamide] | 0.0294 |
| CCC[C@H](N[C@@H](C)C(=O)N1[C@H](C(=O)O)C[C@@H]2CCCC[C@@H]21)C(=O)OCC [perindopril erbumine] | -1.33 |
| Cc1nccnc1N1CCCCC1 [modaline sulfate] | 0.685 |
| CCC1(C)OC(=O)N(C)C1=O (configuration not stated) [paramethadione] | 0.53 |
| COC(=O)Nc1nc2cc(S(=O)c3ccccc3)ccc2[nH]1 (configuration not stated) [oxfendazole] | 0.604 |
| NC(=O)CCCCC1CCSS1 (configuration not stated) [lipoamide] | -0.084 |
| CN1CCOC(c2ccccc2)c2ccccc2C1 (configuration not stated) [nefopam] | -0.084 |
| O=C(O)c1cccnc1 [niacin] | -0.167 |
| CCC(C)(C)C(=O)O[C@H]1C[C@@H](C)C=C2C=C[C@H](C)[C@H](CC[C@@H]3C[C@@H](O)CC(=O)O3)[C@H]21 [simvastatin] | 0.751 |
| Nc1ncnc2c1ncn2[C@@H]1O[C@H](CO)[C@@H](O)[C@H]1O [adenosine] | 0.276 |
| CC#CCn1c(N2CCC[C@@H](N)C2)nc2c1c(=O)n(Cc1nc(C)c3ccccc3n1)c(=O)n2C [linagliptin] | -0.437 |

Not a retest: an excerpt of the list.

| SMILES | MUC1 transcript change (Z-score) |
| --- | --- |
| NC(=O)CCCCC1CCSS1 (configuration not stated) [lipoamide] | -0.084 |
| CN1CCOC(c2ccccc2)c2ccccc2C1 (configuration not stated) [nefopam] | -0.084 |
| O=C(O)c1cccnc1 [niacin] | -0.167 |
